Experimental data: PubChem BioAssay AID743448 (Peter MacCallum Cancer Centre, 2014)

- Aim: 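Find knock-downs giving vorinostat-specific cell death in several colon cancer lines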 (follow-up of hits)
- Cells: four human colon cancer cell lines: HCT116-VR (vorinostat-resistant HCT116 derivative), SW480, SW620 and LIM1215
- Reagents: siRNA pool against human genes, 40 nM siRNA pool
- Time to read-out: drug added two days after transfection, read one day later
- Challenge: vorinostat 2.5 µM on one half of each plate, etoposide 5 µM on the other half
- Cell line and drug panel: LIM1215 cells with etoposide
- Detection: 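Caspase 3/7 activity by luminescence and live-cell viability by fluorescence, each given as a ratio to mock-transfected wells and as a robust z-score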
- Direction: caspase ratio to mock: higher = more caspase activity than mock; viability ratio to mock: higher = more live cells than mock
- Rule for the call: 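a row is a hit if caspase relative to mock is 1.6 or above or viability relative to mock is 0.75 or below; wells dying heavily without drug are not called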
- Calls: active = caspase or viability hit in this panel; inactive = no change, or unhealthy well
Shown is an unselected part of the 106 reagents, under one of the conditions tested. 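Calls are per line and drug panel including etoposide, not vorinostat-specific; gene picks needed hits in two or more extra lines with vorinostat versus etoposide.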 Further read-outs or replicates are left out here.

RBBP8 gave caspase ratio to mock 2.8; viability ratio to mock 1.06; active. C1orf52 gave caspase ratio to mock 1.48; viability ratio to mock 0.86; inactive. With knock-down of TBC1D20, the screen gave caspase ratio to mock 2.1; viability ratio to mock 1; active. Against GLI1, the entry reads caspase ratio to mock 1.27; viability ratio to mock 1.04; inactive. Depletion of LAD1 came out at: caspase ratio to mock 2.06; viability ratio to mock 1.05; active. For NUP54, the values are caspase ratio to mock 2.43; viability ratio to mock 0.85; active.

C22orf15 gave caspase ratio to mock 1.84; viability ratio to mock 1.02; active. Against ZNF441, the values are caspase ratio to mock 2.38; viability ratio to mock 1.06; active. POLR2L showed caspase ratio to mock 1.2; viability ratio to mock 0.78; inactive. Silencing of RNF186 gave: caspase ratio to mock 1.15; viability ratio to mock 1.1; inactive. Silencing of POLR2J resulted in: caspase ratio to mock 1.68; viability ratio to mock 0.83; active. With knock-down of PSMD4, the record shows caspase ratio to mock 2.93; viability ratio to mock 0.95; active.

With knock-down of IRX2-DT, the screen gave caspase ratio to mock 5.19; viability ratio to mock 0.95; inactive. With knock-down of RERE, the record shows caspase ratio to mock 4.37; viability ratio to mock 1.22; active. Against NUP62 the deposit lists caspase ratio to mock 2.82; viability ratio to mock 1.01; active. With knock-down of RBM42, the screen gave caspase ratio to mock 1.34; viability ratio to mock 0.74; active. With knock-down of SIN3A, the record shows caspase ratio to mock 1.67; viability ratio to mock 1.12; active. MRPL19 scored caspase ratio to mock 2.04; viability ratio to mock 1; active.

With knock-down of CSE1L, the screen gave caspase ratio to mock 4.39; viability ratio to mock 0.85; active. Depletion of NUP58 came out at: caspase ratio to mock 3.51; viability ratio to mock 1.1; active. Knock-down of OR6T1 gave: caspase ratio to mock 3.97; viability ratio to mock 0.9; active. Knock-down of SLU7 gave: caspase ratio to mock 3.94; viability ratio to mock 0.78; active. Knock-down of ANKRD13C-DT resulted in: caspase ratio to mock 2.78; viability ratio to mock 0.82; active. Depletion of SEMA4F gave: caspase ratio to mock 2.59; viability ratio to mock 0.81; active.

Depletion of PRRT3 came out at: caspase ratio to mock 2.11; viability ratio to mock 0.96; inactive. Silencing of CNOT1 came out at: caspase ratio to mock 9.14; viability ratio to mock 1.12; active. GPER1 scored caspase ratio to mock 3.3; viability ratio to mock 0.91; active. Silencing of IQSEC1 came out at: caspase ratio to mock 3.11; viability ratio to mock 0.9; inactive.

Look-ups from above.
For “caspase ratio to mock”, IRX2-DT shows 5.19
MRPL19, outcome: active
Under “viability ratio to mock”, RBM42 is entered as 0.74
